The supplement of paper PMC12889115
The list shows a part of the results. Values are raw readings; no control value is given beside them.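 In the initial screen, polymyxin B was used at a concentration that permeabilizes Salmonella's outer membrane but not its inner membrane. Maximum growth was set by DMSO wells with or without polymyxin B. Since plates varied, data were ranked per plate, and compounds giving the lowest OD600 advanced as hits.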

Test system: Salmonella enterica serovar Typhimurium SL1344
Assay: bacterial growth OD600 after 18 h with compound and polymyxin B; higher = more bacterial growth (less inhibition)
Settings: 50 µM, Mueller-Hinton broth

For `COc1ccccc1CCC(=O)N1CCCC(N2CCN(c3cccc(Cl)c3)CC2)C1` (centres undefined), the “bacterial growth OD600” value (polymyxin B 1 µg/mL) was 0.81.
In the case of `Cc1nc(N(C)C2CCCCC2)ncc1C(C)NC(=O)c1cccnc1` (centres undefined), the “bacterial growth OD600” value (polymyxin B 0.75 µg/mL) is reported as 0.698.
For `COCCn1cnc2cc(NC(=O)C3CCCCC3)cc(C(=O)NCc3cc(F)cc(F)c3)c21`, the “bacterial growth OD600” value (polymyxin B 0.75 µg/mL) was 0.559.
With `CCC(C)CNC(=O)C1(N2CCN(CC)CC2)Cc2ccccc2C1` (centres undefined) the “bacterial growth OD600” value (polymyxin B 0.75 µg/mL) was 0.982.
In the case of `COc1ccccc1C1CN(CCNC(=O)CCc2scnc2C)Cc2ccccc2O1` (centres undefined), the “bacterial growth OD600” value (polymyxin B 0.75 µg/mL) is reported as 0.523.
In the case of `CCC1CN(CC(=O)NC2CCN(Cc3ccccc3)CC2)Cc2cc(OC)ccc2O1` (centres undefined), the “bacterial growth OD600” value (polymyxin B 0.75 µg/mL) is reported as 0.823.
`Cc1nc2sccn2c1CN1CCCC(C(=O)c2cccc(OC(C)C)c2)C1` (centres undefined) was tested, and the “bacterial growth OD600” value (polymyxin B 1 µg/mL) was 0.741.
With `COc1ccc(NC(=O)CCC2CCCN(Cc3cccc(C)n3)C2)cc1Cl` (centres undefined) the “bacterial growth OD600” value (polymyxin B 1 µg/mL) was 0.855.
`O=C(NCc1cccnc1N1CCCC(O)C1)c1ccc(Cl)c(F)c1` (centres undefined) was tested, and the “bacterial growth OD600” value (polymyxin B 0.75 µg/mL) was 0.786.
For `COc1ccc(CCN2CC(NC(=O)C3CCC3)CC2=O)cc1` (centres undefined), the “bacterial growth OD600” value (polymyxin B 1 µg/mL) was 0.881.
For `OC(Cc1ccccc1)c1ccc2c(c1)CN(CC#Cc1ccccc1)CCO2` (centres undefined), the “bacterial growth OD600” value (polymyxin B 0.75 µg/mL) was 0.613.
In the case of `C=Cc1ccc(C(=O)N2CCC(Cc3ccc(OC)cc3)(C(=O)OCC)CC2)cc1`, the “bacterial growth OD600” value (polymyxin B 1 µg/mL) is reported as 0.486.
With `O=C(COc1ccc(N2CCN(c3ccccn3)CC2)nn1)NCCCn1ccc2ccccc21` the “bacterial growth OD600” value (polymyxin B 0.75 µg/mL) was 0.757.
In the case of `COC(=O)[C@@H]1CCCN1C(=O)Cc1ccc(N2CCC(NCCSc3nncn3C)CC2)cc1`, the “bacterial growth OD600” value (polymyxin B 0.75 µg/mL) is reported as 0.883.
In the case of `COc1ccc(CC2(CCC(=O)N3CCCC3c3nc4cc(F)ccc4[nH]3)CCC(=O)N2)c(F)c1` (centres undefined), the “bacterial growth OD600” value (polymyxin B 0.75 µg/mL) is reported as 0.865.
In the case of `CCC1CN(Cc2cccnc2)Cc2cc(OC)ccc2O1` (centres undefined), the “bacterial growth OD600” value (polymyxin B 0.75 µg/mL) is reported as 0.922.
In the case of `COc1ccc2[nH]c(CCN(C)C(=O)CC3(c4ccccc4OC)CC(=O)N(C)C3=O)nc2c1` (centres undefined), the “bacterial growth OD600” value (polymyxin B 0.75 µg/mL) is reported as 0.984.
For `COc1cccc(-c2cc3c(c(OC)c2)OCCN(CC2CCCCC2)C3)n1`, the “bacterial growth OD600” value (polymyxin B 0.75 µg/mL) was 0.884.
With `CN(Cc1n[nH]c2c1CCCCC2)C(=O)CC1(c2ccc(-c3ccccc3)cc2)CC(=O)N(C)C1=O` (centres undefined) the “bacterial growth OD600” value (polymyxin B 0.75 µg/mL) was -0.002.
